The list shows a part of the results. The calls rarely recur for the same compound in another form.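 Kinases were expressed as nanoluciferase fusions in K562 cells and luminescence was read every 4 h between 2 and 18 h as percent of control, DMSO set to 100% and a positive control to 0%. A time point counts as decreased when the signal drops significantly (2 sigma). The hit call is the authors' own, does not follow from the count of time points alone, and its rule is not shown.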
Each compound was assayed against ULK3 (UniProt Q6PHR2) (assay: number of time points (of 5) at which kinase-Nluc abundance scored as decreased, DMSO-normalised (count); higher = more persistent destabilization). Settings: K562; 2-18 h.

Amino acid sequences for entries named in this document (tags omitted). A change or cut given only in a name is not applied to a line headed by its entry.
UniProt Q6PHR2: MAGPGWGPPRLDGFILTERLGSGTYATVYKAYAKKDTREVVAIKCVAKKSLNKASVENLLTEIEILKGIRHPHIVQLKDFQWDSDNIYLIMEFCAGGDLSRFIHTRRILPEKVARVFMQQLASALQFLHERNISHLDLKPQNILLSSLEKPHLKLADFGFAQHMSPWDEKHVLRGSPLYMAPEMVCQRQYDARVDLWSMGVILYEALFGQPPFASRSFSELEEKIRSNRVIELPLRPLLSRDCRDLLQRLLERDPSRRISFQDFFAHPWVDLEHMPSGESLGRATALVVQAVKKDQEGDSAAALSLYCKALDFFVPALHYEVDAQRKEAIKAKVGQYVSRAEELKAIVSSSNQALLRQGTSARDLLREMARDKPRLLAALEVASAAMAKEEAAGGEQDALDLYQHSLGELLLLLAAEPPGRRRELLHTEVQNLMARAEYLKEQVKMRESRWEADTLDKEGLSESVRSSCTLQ

| Structure (SMILES) | number of time points |
| --- | --- |
| CC(C)n1ncnc1-c1cn2c(n1)-c1ccc(O[C@@H](C)C(N)=O)cc1OCC2 (10 µM) | 0 |
| O=C(c1cccc(Cl)c1F)N1CCN(Cc2cccc(Nc3nccs3)n2)CC1 (2.5 µM) | 0 |
| COc1cc(F)ccc1-c1ncnc(Nc2cccc(C[S@](C)(=N)=O)c2)n1 [Atuveciclib] (2.5 µM) | 0 |
| Cc1cnc(NC(=O)c2cc(Oc3cnc(C(=O)N(C)C)nc3)c3cc(C)oc3c2)cn1 (10 µM) | 0 |
| CC1=C(C(=O)Nc2cc3cn[nH]c3cc2F)C(c2ccc(C(F)(F)F)cc2)CC(=O)N1 (configuration not stated) (10 µM) | 0 |
| NCC1CCC(CNc2nc(NCc3ccccc3OC(F)(F)F)ncc2[N+](=O)[O-])CC1 (configuration not stated) [PKC-theta inhibitor] (10 µM) | 0 |
| O=C1Nc2ccc(I)cc2/C1=C/c1cc(Br)c(O)c(Br)c1 (10 µM) | 0 |
| COc1cc(-c2oc3cc(O)cc(O)c3c(=O)c2O)ccc1O [Isorhamnetin] (10 µM) | 1 |
| O=C1OC(/C=C/c2ccccc2)=NC/1=C\c1cccnc1 (10 µM) | 0 |
| Cn1ncc(NC(=O)c2nc(-c3c(F)cccc3F)sc2N)c1N1CC[C@@H](N)[C@H](F)CC1 (10 µM) | 0 |
| CNC(=O)CNc1cnc2ccc(-c3ccc(OC)c(OC)c3)cc2n1 (10 µM) | 0 |
| CO[C@H]1C[C@@H]2CC[C@@H](C)[C@@](O)(O2)C(=O)C(=O)N2CCCC[C@H]2C(=O)O[C@H]([C@H](C)C[C@@H]2CC[C@@H](OCCO)[C@H](OC)C2)CC(=O)[C@H](C)/C=C(\C)[C@@H](O)[C@@H](OC)C(=O)[C@H](C)C[C@H](C)/C=C/C=C/C=C/1C [Everolimus] (10 µM) | 0 |

2 entries from above, comma-delimited.
Structure (SMILES),number of time points
CC1=C(C(=O)Nc2cc3cn[nH]c3cc2F)C(c2ccc(C(F)(F)F)cc2)CC(=O)N1 (configuration not stated) (10 µM),0
NCC1CCC(CNc2nc(NCc3ccccc3OC(F)(F)F)ncc2[N+](=O)[O-])CC1 (configuration not stated) [PKC-theta inhibitor] (10 µM),0

— the supplement of paper PMC12823440, “Inhibitors supercharge kinase turnover through native proteolytic circuits” (Nature, 2025)
